The supplement of paper PMC10849652
The other results are listed elsewhere or left out.

Protein sequences, listed by entry. Tags and fused reporters are not part of them. Lines headed by an entry give the natural chain unless they say otherwise; changes in a name come on top.
UniProt Q03167: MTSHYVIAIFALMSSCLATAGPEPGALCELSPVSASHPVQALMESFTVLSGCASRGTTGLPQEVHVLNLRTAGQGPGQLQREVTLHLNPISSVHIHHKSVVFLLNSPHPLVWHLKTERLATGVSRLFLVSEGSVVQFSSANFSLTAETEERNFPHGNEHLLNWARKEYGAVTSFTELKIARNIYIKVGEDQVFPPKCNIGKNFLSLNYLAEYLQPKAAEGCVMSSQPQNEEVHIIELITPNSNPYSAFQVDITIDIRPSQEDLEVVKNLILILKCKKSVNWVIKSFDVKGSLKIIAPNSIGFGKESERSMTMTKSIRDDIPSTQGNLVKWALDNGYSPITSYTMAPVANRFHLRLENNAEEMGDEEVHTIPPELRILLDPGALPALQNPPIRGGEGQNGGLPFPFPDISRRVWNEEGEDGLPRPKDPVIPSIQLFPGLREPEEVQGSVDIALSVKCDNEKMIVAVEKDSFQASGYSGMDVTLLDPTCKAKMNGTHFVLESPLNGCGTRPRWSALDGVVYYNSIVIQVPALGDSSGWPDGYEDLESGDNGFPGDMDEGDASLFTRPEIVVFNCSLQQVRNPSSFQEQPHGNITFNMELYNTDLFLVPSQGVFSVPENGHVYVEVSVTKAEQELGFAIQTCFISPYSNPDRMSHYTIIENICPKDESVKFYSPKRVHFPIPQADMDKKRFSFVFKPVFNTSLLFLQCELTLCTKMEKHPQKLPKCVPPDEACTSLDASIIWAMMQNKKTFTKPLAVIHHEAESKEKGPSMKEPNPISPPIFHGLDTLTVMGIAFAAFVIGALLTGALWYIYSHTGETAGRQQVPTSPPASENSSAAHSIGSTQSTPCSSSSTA
UniProt Q9Y4C2: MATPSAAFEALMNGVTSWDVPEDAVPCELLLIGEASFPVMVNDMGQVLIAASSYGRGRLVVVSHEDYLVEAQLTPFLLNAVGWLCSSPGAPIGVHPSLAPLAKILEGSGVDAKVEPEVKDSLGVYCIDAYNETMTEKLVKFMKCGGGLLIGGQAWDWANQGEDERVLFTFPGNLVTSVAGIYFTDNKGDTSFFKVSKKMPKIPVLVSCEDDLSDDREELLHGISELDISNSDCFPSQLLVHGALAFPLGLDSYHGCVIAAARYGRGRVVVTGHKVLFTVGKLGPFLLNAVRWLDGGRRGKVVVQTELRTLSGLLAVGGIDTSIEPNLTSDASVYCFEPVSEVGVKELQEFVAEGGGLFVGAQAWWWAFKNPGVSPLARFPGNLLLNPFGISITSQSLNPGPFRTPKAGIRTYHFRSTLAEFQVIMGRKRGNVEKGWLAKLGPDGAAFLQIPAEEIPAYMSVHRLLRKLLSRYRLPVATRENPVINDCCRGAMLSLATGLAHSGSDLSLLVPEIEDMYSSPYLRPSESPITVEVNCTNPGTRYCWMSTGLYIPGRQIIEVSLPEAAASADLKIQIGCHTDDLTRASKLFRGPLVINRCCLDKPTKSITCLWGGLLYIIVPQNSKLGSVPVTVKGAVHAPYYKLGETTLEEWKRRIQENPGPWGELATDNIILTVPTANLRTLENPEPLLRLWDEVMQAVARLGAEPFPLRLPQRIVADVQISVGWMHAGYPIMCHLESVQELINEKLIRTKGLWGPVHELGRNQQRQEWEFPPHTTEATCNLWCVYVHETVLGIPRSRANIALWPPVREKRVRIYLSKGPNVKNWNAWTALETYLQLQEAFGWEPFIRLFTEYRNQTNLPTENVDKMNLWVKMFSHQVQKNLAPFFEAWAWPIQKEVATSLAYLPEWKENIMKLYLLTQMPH
UniProt O14925: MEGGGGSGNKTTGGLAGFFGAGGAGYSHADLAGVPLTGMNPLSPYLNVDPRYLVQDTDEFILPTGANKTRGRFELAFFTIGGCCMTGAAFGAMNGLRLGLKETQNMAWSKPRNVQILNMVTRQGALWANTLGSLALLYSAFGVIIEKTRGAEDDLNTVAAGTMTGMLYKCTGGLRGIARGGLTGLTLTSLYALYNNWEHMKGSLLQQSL
UniProt Q96MV1: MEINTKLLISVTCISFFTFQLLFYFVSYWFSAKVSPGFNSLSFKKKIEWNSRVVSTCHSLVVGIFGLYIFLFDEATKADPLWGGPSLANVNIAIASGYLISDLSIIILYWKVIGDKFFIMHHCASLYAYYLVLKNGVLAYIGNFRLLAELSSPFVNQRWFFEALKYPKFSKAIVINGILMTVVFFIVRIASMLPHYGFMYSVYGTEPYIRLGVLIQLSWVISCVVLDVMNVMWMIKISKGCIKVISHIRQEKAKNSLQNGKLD
UniProt P29401: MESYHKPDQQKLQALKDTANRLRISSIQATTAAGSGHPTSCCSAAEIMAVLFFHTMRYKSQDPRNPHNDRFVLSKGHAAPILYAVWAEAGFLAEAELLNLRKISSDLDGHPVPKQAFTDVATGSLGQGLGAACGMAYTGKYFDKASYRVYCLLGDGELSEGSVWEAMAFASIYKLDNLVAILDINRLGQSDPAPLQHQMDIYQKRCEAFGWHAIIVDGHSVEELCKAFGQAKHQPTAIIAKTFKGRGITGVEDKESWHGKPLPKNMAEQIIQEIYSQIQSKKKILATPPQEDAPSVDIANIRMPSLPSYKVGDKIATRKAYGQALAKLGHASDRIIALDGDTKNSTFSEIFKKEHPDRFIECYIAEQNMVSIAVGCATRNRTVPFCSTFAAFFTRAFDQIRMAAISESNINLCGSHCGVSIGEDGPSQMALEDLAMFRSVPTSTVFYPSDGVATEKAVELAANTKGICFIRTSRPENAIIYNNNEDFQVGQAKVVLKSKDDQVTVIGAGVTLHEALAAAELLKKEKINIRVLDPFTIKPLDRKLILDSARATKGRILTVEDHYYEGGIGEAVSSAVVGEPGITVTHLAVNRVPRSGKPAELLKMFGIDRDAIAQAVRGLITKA
UniProt Q9Y5J7: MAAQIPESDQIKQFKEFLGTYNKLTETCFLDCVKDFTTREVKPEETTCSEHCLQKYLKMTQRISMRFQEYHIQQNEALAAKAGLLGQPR
UniProt Q04726: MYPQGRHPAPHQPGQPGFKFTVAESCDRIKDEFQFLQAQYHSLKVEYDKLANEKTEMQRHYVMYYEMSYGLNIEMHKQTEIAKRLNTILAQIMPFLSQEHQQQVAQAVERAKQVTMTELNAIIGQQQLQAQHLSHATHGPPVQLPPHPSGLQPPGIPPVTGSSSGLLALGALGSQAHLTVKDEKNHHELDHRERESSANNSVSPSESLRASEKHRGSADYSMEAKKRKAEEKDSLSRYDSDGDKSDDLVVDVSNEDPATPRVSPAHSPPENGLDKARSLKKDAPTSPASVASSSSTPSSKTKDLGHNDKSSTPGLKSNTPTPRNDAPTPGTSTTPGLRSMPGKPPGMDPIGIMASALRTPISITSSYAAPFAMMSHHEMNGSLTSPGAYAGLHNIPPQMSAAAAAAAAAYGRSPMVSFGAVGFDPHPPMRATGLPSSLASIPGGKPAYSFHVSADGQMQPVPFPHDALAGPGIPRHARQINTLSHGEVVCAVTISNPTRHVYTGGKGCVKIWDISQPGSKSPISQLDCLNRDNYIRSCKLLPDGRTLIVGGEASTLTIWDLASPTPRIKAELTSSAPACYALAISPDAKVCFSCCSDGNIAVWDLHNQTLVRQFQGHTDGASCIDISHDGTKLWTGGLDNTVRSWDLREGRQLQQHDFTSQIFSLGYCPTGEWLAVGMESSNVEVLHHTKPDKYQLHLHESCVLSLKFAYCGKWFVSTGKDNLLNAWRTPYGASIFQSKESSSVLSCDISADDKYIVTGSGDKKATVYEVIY
UniProt Q9Y2W6: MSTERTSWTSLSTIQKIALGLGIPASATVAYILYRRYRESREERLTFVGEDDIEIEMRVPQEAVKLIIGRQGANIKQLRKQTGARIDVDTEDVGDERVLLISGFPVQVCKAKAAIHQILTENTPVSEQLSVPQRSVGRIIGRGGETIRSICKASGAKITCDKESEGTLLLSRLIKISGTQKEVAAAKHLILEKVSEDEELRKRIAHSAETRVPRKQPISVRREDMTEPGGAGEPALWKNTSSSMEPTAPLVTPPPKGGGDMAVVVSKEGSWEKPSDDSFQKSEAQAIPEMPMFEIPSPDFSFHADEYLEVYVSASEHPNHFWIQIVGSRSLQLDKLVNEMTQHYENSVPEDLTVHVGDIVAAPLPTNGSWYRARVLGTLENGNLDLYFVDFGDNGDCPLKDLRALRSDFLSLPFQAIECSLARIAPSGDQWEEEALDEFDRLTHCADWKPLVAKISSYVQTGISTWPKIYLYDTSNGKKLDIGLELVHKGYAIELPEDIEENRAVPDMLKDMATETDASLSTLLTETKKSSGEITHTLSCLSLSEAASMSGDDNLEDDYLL
UniProt Q15814: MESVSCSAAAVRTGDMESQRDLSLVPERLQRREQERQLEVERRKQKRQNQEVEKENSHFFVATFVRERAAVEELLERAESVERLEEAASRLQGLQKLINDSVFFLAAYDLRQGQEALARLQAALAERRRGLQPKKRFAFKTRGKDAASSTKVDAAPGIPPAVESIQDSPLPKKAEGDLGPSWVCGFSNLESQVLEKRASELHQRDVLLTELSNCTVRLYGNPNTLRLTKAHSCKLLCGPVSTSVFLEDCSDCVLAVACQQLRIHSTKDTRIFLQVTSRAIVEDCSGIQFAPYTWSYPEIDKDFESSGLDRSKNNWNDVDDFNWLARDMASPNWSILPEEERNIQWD
UniProt Q99426: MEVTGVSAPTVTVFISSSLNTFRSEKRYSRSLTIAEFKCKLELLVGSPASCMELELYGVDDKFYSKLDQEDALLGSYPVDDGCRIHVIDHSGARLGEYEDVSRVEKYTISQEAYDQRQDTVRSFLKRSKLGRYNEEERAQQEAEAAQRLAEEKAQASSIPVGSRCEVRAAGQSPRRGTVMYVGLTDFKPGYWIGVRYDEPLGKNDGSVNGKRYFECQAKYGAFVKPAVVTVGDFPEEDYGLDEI
UniProt Q96J01: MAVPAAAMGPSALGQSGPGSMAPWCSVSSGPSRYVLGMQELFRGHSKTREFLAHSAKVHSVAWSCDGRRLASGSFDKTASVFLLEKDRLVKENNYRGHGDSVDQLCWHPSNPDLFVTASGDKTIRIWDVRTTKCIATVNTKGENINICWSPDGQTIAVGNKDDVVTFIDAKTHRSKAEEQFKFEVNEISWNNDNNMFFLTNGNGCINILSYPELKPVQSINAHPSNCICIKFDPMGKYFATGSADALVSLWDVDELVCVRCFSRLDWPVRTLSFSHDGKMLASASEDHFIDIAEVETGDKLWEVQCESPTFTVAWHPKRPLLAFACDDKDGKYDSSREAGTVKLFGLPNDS
UniProt Q13769: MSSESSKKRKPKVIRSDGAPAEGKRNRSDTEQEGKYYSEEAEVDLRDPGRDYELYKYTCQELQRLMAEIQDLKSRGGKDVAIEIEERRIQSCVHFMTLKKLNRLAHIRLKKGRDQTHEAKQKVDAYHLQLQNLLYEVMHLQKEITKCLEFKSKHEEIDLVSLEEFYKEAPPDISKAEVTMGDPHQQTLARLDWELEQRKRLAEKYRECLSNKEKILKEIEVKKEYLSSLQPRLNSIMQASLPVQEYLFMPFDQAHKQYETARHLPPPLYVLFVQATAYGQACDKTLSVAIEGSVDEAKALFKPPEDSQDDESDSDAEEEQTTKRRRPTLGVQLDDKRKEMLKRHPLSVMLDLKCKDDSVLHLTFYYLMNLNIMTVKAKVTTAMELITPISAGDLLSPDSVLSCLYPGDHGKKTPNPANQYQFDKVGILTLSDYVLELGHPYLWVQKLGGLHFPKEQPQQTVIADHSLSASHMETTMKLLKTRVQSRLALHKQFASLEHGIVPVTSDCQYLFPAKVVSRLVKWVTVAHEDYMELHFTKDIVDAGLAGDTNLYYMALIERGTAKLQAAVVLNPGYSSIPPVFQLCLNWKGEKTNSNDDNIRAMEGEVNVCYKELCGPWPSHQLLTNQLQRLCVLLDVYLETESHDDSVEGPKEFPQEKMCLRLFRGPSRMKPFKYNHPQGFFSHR
UniProt P17987, whole entry, looked up: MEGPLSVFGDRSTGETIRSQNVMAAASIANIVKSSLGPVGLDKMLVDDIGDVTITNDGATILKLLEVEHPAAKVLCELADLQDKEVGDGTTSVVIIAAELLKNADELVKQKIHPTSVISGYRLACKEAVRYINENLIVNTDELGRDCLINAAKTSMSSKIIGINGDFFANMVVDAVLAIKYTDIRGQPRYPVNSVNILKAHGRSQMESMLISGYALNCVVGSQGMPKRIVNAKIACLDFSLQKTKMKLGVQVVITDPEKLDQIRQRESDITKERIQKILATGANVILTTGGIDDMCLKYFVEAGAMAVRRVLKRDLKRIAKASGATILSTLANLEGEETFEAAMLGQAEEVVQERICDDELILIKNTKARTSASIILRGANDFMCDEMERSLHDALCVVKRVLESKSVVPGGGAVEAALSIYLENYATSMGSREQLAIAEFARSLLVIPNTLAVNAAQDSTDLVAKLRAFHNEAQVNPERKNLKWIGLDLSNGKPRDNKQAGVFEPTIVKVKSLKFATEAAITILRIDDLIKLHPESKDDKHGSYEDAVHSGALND

Key:
Assay in all cases: log2 fold change, soluble protein after heating vs DMSO (PISA); higher = thermal stabilisation; K562 cells, 10 uM, 30 min; active = over 0.2 and 3.5 SD of the protein, either way, in both replicates (recomputed)
[1] = compound: CC[C@@H]1C(=O)N(C)c2cnc(Nc3ccc(C(=O)NC4CCN(C)CC4)cc3OC)nc2N1C1CCCC1
In short: (§1)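 Soluble protein was defined as the supernatant after 21,000xg for 90 min. It came from K562 cells at 2×10^6 cells/mL given 10 μM compound for 30 min, heated in aliquots for 3 min across 48°C-58°C, pooled, and extracted in PBS with 0.5% NP-40 at 4°C, and was quantified by TMTpro 16plex LC-MS/MS with equalised channel sums. Thermal stability against control samples, from duplicates, is reported as log2 fold change.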

[2] = compound: CC[C@@H]1C(=O)N(C)c2cnc(Nc3ccc(C(=O)N[C@H]4CC[C@H](N5CCN(CC6CC6)CC5)CC4)cc3OC)nc2N1C(C)C [volasertib]
In short: as §1

[3] = compound: CC[C@H](C)N1C=C(C2=C(C=C(C=C21)C3=CN=C(C=C3)N4CCNCC4)C(=O)NCC5=C(C=C(NC5=O)C)C)C
In short: as §1

[4] = compound: CC[C@H](C)[C@@H](C(=O)N[C@@H]([C@@H](C)O)C(=O)N[C@@H](CC(C)C)C(=O)[C@]1(CO1)C)NC(=O)[C@H]([C@@H](C)CC)N(C)C(=O)C [epoxomicin]
In short: as §1

[5] = compound: CCn1c(C(=O)N(C2CC2)C2CC2)cc2c3c(ncn3C)c(Nc3cc(C)n(C)n3)nc21
In short: as §1

[6] = compound: CCn1cc(-c2ccnc3[nH]c(-c4cccc(CN(C)C)c4)cc23)c(-c2ccc(NC(=O)N(C)C)cc2)n1
In short: as §1

[7] = compound: CN(C)CC(=O)Nc1ccc2[nH]c(=O)c3ccccc3c2c1
In short: as §1

[8] = compound: CN(CCOC1=CC=C(C=C1)C[C@H]2C(=O)NC(=O)S2)C3=CC=CC=N3 (racemic) [rosiglitazone]
In short: as §1

[9] = compound: CN1C2=C(C3=C1C(=O)N(N=C3)CC4=CC(=CC=C4)N)SC(=C2)S(=O)C
In short: as §1

[10] = compound: CN1CCC(CNc2ccc3ncc(-c4cccc(OC(F)(F)F)c4)n3n2)CC1
In short: as §1

[11] = compound: CN1CCN(CCOc2cc(OC3CCOCC3)c3c(Nc4c(Cl)ccc5c4OCO5)ncnc3c2)CC1 [saracatinib]
In short: as §1

[12] = compound: CN1CCN(c2nc(C3=C(c4c[nH]c5ccccc45)C(=O)NC3=O)c3ccccc3n2)CC1 [sotrastaurin]
In short: as §1

[13] = compound: CN1CC[C@H](c2c(O)cc(O)c3c(=O)cc(-c4ccccc4Cl)oc23)[C@H](O)C1 [alvocidib]
In short: as §1

[14] = compound: CN1CCc2c(c3ccccc3n2Cc2ccc(C(=O)NO)cc2)C1 [Tubastatin A]
In short: as §1

[15] = compound: CNC(=O)C1=CC=CC=C1NC2=NC(=NC=C2Cl)NC3=C(C=C(C=C3)N4CCOCC4)OC
In short: as §1

[16] = compound: CNC(=O)c1ccc(Nc2ncc(C(F)(F)F)c(NCc3nccnc3N(C)S(C)(=O)=O)n2)cc1 [defactinib]
In short: as §1

[17] = compound: CNCc1ccc(-c2[nH]c3cc(F)cc4c3c2CCNC4=O)cc1 [rucaparib]
In short: as §1

[18] = compound: CNc1nc(-c2ccc3c(N)n[nH]c3c2)cc(N2C[C@@H](C(=O)NC3CCCCC3)CC[C@H]2C)n1
In short: as §1

[19] = compound: COC(=O)N[C@@H](C)CNc1nccc(-c2cn(C(C)C)nc2-c2cc(Cl)cc(NS(C)(=O)=O)c2F)n1 [encorafenib]
In short: as §1

[20] = compound: COC(=O)[C@H](CCSC)NC(=O)C1=C(C=C(C=C1)NC[C@H](CS)N)C2=CC=CC=C2
In short: as §1

Measured: log2 fold change

TGFBR3 (UniProt Q03167)
inactive: [1] 0.05 | [2] -0.075 | [3] -0.063 | [4] -0.015 | [5] 0.073 | [6] -0.007 | [7] 0.009 | [8] 0.01 | [9] 0.03 | [10] 0.015 | [11] -0.081 | [12] -0.045 | [13] -0.013 | [14] -0.007 | [15] -0.036 | [16] 0.035 | [17] 0.008 | [18] 0.045 | [19] -0.015 | [20] -0.01

TCAF1 (UniProt Q9Y4C2)
inactive: [1] 0.024 | [2] -0.082 | [3] 0.078 | [4] 0.057 | [5] -0.047 | [6] -0.091 | [7] -0.012 | [8] 0.076 | [9] 0.07 | [10] -0.147 | [11] -0.092 | [12] -0.074 | [13] -0.01 | [14] 0.024 | [15] -0.062 | [16] -0.048 | [17] 0.083 | [18] 0.026 | [19] 0.06 | [20] -0.028

TIMM23 (UniProt O14925)
inactive: [1] -0.001 | [2] 0.056 | [3] -0.02 | [4] 0.013 | [5] 0.015 | [6] -0.002 | [7] -0.001 | [8] 0.041 | [9] -0.073 | [10] 0.099 | [11] 0.143 | [12] 0.028 | [13] -0.008 | [14] -0.009 | [15] -0.018 | [16] -0.064 | [17] -0.007 | [18] -0.028 | [19] 0.003 | [20] 0.027

TLCD4 (UniProt Q96MV1)
inactive: [1] 0.054 | [2] 0.062 | [3] -0.002 | [4] 0.061 | [5] 0.07 | [6] -0.029 | [7] 0.081 | [8] 0.012 | [9] -0.043 | [10] 0.123 | [11] 0.114 | [12] -0.068 | [13] 0.036 | [14] -0.005 | [15] 0.045 | [16] 0.011 | [17] -0.037 | [18] -0.054 | [19] 0.012 | [20] 0.019

TLCD1 (UniProt Q96CP7)
inactive: [1] -0.025 | [2] -0.173 | [3] -0.041 | [4] -0.019 | [5] 0.159 | [6] -0.089 | [7] 0.051 | [8] 0.01 | [9] 0.036 | [10] -0.17 | [11] -0.08 | [12] -0.004 | [13] -0.154 | [14] -0.017 | [15] 0 | [16] -0.154 | [17] -0.02 | [18] 0.042 | [19] 0.063 | [20] 0.031

TKT isoform 2 (UniProt P29401)
inactive: [1] -0.049 | [2] 0.049 | [3] -0.037 | [4] 0 | [5] 0.021 | [6] 0.073 | [7] -0.001 | [8] 0 | [9] -0.049 | [10] 0.017 | [11] 0.043 | [12] 0.027 | [13] -0.02 | [14] -0.019 | [15] -0.027 | [16] 0.013 | [17] -0.079 | [18] -0.002 | [19] -0.027 | [20] 0.014

TIMM9 (UniProt Q9Y5J7)
inactive: [1] 0.071 | [2] -0.012 | [3] -0.016 | [4] 0.266 | [5] 0.019 | [6] 0.062 | [7] -0.008 | [8] 0.021 | [9] -0.076 | [10] 0.219 | [11] -0.027 | [12] -0.006 | [13] -0.067 | [14] -0.002 | [15] -0.004 | [16] 0 | [17] -0.026 | [18] 0.003 | [19] -0.072 | [20] -0.036

TLE3 isoform 4 (UniProt Q04726)
inactive: [1] 0.031 | [2] -0.01 | [3] -0.023 | [4] 0.101 | [5] -0.035 | [6] -0.043 | [7] -0.04 | [8] -0.01 | [9] 0.028 | [10] 0.032 | [11] 0.032 | [12] 0.017 | [13] -0.026 | [14] -0.046 | [15] 0.02 | [16] 0.007 | [17] 0.018 | [18] 0.023 | [19] -0.053 | [20] 0.011

TDRKH (UniProt Q9Y2W6)
inactive: [1] 0.03 | [2] -0.062 | [3] 0.103 | [4] -0.043 | [5] -0.039 | [6] 0.007 | [7] -0.005 | [8] 0.053 | [9] 0.005 | [10] -0.094 | [11] -0.04 | [12] -0.079 | [13] 0.005 | [14] 0.047 | [15] -0.053 | [16] -0.025 | [17] -0.038 | [18] 0.043 | [19] 0.073 | [20] -0.032

TBCC (UniProt Q15814)
inactive: [1] -0.038 | [2] -0.034 | [3] 0.033 | [4] 0.049 | [5] -0.012 | [6] -0.035 | [7] -0.022 | [8] 0.035 | [9] -0.042 | [10] -0.002 | [11] 0.003 | [12] -0.008 | [13] -0.098 | [14] 0.007 | [15] -0.004 | [16] -0.063 | [17] -0.045 | [18] -0.048 | [19] -0.001 | [20] 0.017

TBCB (UniProt Q99426)
inactive: [1] -0.064 | [2] -0.133 | [3] 0.046 | [4] 0.051 | [5] 0.011 | [6] -0.015 | [7] 0.046 | [8] 0.015 | [9] -0.02 | [10] -0.126 | [11] 0.008 | [12] -0.023 | [13] -0.142 | [14] -0.008 | [15] 0.013 | [16] -0.112 | [17] -0.049 | [18] -0.002 | [19] 0.036 | [20] -0.025

THOC3 (UniProt Q96J01)
inactive: [1] -0.057 | [2] -0.084 | [3] 0.02 | [4] 0.005 | [5] -0.014 | [6] -0.078 | [7] -0.008 | [8] -0.006 | [9] -0.034 | [10] 0.01 | [11] 0.07 | [12] 0.054 | [13] -0.101 | [14] -0.008 | [15] -0.049 | [16] -0.017 | [17] 0.028 | [18] 0.023 | [19] 0.002 | [20] 0.003

TCEA1 (UniProt P23193)
inactive: [1] -0.063 | [2] -0.013 | [3] 0.033 | [4] 0.071 | [5] 0.013 | [6] 0.011 | [7] -0.024 | [8] 0.024 | [9] -0.019 | [10] -0.021 | [11] -0.008 | [12] -0.028 | [13] -0.065 | [14] -0.021 | [15] -0.023 | [16] -0.028 | [17] -0.029 | [18] 0.028 | [19] -0.007 | [20] 0.007

Taken from the results shown (2 entries):
TBCC (UniProt Q15814)
inactive: [1] -0.038 | [2] -0.034 | [3] 0.033 | [4] 0.049 | [5] -0.012 | [6] -0.035 | [7] -0.022 | [8] 0.035 | [9] -0.042 | [10] -0.002 | [11] 0.003 | [12] -0.008 | [13] -0.098 | [14] 0.007 | [15] -0.004 | [16] -0.063 | [17] -0.045 | [18] -0.048 | [19] -0.001 | [20] 0.017

TBCB (UniProt Q99426)
inactive: [1] -0.064 | [2] -0.133 | [3] 0.046 | [4] 0.051 | [5] 0.011 | [6] -0.015 | [7] 0.046 | [8] 0.015 | [9] -0.02 | [10] -0.126 | [11] 0.008 | [12] -0.023 | [13] -0.142 | [14] -0.008 | [15] 0.013 | [16] -0.112 | [17] -0.049 | [18] -0.002 | [19] 0.036 | [20] -0.025

Next records follow.

THOC5 (UniProt Q13769)
inactive: [1] -0.009 | [2] -0.061 | [3] 0.043 | [4] -0.003 | [5] 0.011 | [6] -0.005 | [7] 0.006 | [8] 0.014 | [9] -0.015 | [10] 0.008 | [11] 0.038 | [12] -0.029 | [13] -0.044 | [14] -0.029 | [15] -0.028 | [16] -0.034 | [17] 0.024 | [18] -0.071 | [19] -0.002 | [20] 0.049

THOC7 (UniProt Q6I9Y2)
inactive: [1] 0.071 | [2] -0.032 | [3] 0.029 | [4] 0.005 | [5] -0.007 | [6] -0.007 | [7] -0.119 | [8] 0.002 | [9] 0.007 | [10] 0.048 | [11] 0.01 | [12] -0.008 | [13] -0.061 | [14] -0.017 | [15] 0.022 | [16] -0.076 | [17] 0.045 | [18] -0.06 | [19] 0.064 | [20] 0.038

TCP1 (UniProt P17987)
inactive: [1] -0.013 | [2] 0.004 | [3] -0.007 | [4] 0.003 | [5] -0.002 | [6] 0.015 | [7] -0.001 | [8] 0.002 | [9] -0.042 | [10] 0 | [11] 0.013 | [12] 0.02 | [13] -0.001 | [14] -0.026 | [15] -0.029 | [16] -0.004 | [17] -0.022 | [18] 0.018 | [19] 0.012 | [20] 0.005
